Test results taken from ChEMBL document CHEMBL3301458, “MMV Malaria Box hERG screening”.
Activity calls are given as the source filed them. How the calls were made is not given here.

Chains of the proteins cited; added tags and fusions are not shown. Lines headed by an entry give the natural chain unless they say otherwise; changes in a name come on top.
UniProt Q12809: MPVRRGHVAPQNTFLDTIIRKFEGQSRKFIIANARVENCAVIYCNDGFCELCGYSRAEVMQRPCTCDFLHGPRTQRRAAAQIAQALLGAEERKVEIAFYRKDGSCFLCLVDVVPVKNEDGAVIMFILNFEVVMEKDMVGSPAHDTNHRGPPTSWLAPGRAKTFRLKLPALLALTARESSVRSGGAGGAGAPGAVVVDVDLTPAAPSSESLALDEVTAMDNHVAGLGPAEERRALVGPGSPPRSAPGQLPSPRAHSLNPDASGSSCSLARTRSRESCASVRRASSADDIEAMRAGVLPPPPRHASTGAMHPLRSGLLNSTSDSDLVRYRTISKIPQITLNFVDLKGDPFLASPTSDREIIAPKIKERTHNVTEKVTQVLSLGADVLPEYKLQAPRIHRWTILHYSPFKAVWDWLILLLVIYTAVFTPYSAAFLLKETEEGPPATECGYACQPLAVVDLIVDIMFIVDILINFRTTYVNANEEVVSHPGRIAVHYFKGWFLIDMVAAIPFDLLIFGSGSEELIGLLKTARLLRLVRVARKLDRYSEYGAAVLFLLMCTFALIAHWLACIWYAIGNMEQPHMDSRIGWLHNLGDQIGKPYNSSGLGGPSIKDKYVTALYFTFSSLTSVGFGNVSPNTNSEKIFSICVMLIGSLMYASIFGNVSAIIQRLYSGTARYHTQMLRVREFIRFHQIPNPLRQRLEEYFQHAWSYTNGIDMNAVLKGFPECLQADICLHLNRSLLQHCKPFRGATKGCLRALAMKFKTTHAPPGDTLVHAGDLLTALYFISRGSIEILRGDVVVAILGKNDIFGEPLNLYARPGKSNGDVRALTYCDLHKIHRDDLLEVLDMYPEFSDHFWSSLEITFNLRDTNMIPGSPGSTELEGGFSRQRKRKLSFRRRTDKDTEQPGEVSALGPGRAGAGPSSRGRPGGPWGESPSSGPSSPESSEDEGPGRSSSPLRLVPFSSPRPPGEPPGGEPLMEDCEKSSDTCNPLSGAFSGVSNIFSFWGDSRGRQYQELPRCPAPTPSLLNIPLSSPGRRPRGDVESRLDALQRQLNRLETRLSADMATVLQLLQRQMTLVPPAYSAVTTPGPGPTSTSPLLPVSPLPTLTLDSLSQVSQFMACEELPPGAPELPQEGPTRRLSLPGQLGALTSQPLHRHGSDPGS

Columns and labels:
hERG (Kv11.1, KCNH2) [1] = biological target: T1, hERG (Kv11.1, KCNH2) (Homo sapiens, UniProt Q12809); assay: in vitro
hERG (Kv11.1, KCNH2) [2] = biological target: T1, hERG (Kv11.1, KCNH2); assay: in vitro; remark: listed apart in the source

In the case of `C=CC12CCN(CC1)C(C(O)c1ccnc3ccc(OC)cc13)C2` (configuration not stated), the inhibition at 1.1 µM (hERG (Kv11.1, KCNH2) [1]) is reported as 20% and the inhibition at 11.1 µM (hERG (Kv11.1, KCNH2) [2]) is reported as active: 84%.
